Common to all, as to assay: affinity purification with mass spectrometry
One experiment concerns the target T1, Halo-ARID4A (UniProt P29374).
T1 sequence: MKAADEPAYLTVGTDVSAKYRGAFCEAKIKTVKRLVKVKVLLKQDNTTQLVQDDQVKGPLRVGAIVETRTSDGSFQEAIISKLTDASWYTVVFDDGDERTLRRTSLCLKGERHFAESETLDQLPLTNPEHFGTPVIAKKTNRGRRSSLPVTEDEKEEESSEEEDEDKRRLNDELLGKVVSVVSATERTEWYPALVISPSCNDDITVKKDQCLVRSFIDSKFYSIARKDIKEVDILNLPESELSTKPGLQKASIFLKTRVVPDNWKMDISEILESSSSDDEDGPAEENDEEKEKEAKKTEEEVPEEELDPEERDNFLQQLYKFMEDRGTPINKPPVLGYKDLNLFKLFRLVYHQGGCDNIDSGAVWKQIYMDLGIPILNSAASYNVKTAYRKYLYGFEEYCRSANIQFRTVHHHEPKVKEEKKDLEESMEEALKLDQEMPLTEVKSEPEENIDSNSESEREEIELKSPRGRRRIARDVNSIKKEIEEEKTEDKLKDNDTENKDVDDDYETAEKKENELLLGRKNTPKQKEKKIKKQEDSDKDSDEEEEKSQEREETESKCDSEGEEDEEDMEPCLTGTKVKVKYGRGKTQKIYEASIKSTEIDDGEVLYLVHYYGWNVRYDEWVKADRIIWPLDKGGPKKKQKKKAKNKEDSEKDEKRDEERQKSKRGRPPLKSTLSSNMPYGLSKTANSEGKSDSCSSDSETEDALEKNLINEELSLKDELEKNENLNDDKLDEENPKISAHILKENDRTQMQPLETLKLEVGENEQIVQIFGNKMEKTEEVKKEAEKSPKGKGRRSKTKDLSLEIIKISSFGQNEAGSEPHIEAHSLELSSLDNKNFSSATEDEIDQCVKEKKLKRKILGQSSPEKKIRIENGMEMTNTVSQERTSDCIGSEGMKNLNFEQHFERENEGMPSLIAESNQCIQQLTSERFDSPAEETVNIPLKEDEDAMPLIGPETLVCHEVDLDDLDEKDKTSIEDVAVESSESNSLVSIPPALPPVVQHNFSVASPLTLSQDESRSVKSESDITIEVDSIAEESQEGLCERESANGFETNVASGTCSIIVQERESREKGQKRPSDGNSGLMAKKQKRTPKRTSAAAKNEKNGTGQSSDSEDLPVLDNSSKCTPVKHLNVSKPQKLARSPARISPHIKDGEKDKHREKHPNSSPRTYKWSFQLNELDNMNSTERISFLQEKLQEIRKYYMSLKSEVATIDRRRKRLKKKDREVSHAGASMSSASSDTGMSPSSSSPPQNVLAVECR

Protein sequences, listed by entry. Tags and fused reporters are not part of them.
UniProt Q13547: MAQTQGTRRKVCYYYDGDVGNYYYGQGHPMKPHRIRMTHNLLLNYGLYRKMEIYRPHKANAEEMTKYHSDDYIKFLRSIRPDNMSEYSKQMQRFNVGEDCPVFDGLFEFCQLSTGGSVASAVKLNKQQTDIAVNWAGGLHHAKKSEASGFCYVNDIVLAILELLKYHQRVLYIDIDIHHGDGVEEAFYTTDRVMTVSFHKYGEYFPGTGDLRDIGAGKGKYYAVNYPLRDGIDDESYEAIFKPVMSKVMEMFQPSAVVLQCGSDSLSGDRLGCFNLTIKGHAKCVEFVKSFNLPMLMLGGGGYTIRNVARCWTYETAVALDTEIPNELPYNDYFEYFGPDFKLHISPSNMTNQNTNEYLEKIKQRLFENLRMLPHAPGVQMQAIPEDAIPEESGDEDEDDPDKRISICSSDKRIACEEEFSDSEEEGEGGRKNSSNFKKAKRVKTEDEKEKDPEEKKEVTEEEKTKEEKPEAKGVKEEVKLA

Another experiment addresses Halo-SIN3A_Δ7_968-1186.
Another experiment deals with Halo-HDAC1 (UniProt Q13547).
For a further experiment, the target named is T2, Halo-BRMS1 (UniProt Q9HCU9).
T2 sequence: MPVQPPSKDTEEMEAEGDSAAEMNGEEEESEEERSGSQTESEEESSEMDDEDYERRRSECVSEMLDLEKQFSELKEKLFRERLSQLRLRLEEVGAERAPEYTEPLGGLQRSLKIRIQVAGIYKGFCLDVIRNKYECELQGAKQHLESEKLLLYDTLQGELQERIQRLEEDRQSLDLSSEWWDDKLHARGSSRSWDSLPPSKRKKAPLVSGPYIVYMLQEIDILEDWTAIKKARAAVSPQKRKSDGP

Another experiment concerns the target T3, Halo-ING1 (UniProt Q9UK53).
T3 sequence: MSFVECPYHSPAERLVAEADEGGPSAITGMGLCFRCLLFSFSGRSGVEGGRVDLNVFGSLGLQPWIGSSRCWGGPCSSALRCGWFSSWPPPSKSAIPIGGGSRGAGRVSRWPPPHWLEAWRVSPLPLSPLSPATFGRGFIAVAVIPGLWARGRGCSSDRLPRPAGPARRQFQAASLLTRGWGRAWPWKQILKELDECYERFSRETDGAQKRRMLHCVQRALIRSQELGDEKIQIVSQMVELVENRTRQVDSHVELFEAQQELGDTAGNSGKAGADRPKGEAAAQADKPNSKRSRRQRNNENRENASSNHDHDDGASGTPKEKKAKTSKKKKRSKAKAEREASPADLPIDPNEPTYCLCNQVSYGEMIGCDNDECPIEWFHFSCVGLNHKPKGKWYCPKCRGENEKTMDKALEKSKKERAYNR

Another experiment concerns the target T4, Halo-SAP30 (UniProt O75446).
T4 sequence: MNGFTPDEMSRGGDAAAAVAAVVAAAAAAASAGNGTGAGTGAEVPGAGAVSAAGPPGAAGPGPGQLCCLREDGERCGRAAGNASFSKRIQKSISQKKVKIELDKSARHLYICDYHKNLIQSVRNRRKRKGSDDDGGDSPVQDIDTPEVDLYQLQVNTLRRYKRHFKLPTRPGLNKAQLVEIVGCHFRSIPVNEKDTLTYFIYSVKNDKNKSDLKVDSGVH

These are yes or no findings as the source states them, for the method shown. In cells and extracts the contact can be indirect. These calls come from enrichment with a bait or labelling near it, and not all partners need be listed. For part of these data: A no says only that the protein was not detected with the bait.

The values below come from article doi:10.1101/2024.01.16.575949.

B1: endogenous FAM60A (protein, UniProt Q9NP50 1-221)
chain: MFGFHKPKMYRSIEGCCICRAKSSSSRFTDSKRYEKDFQSCFGLHETRSGDICNACVLLVKRWKKLPAGSKKNWNHVVDARAGPSLKTTLKPKKVKTLSGNRIKSNQISKLQKEFKRHNSDAHSTTSSASPAQSPCYSNQSDDGSDTEMASGSNRTPVFSFLDLTYWKRQKICCGIIYKGRFGEVLIDTHLFKPCCSNKKAAAEKPEEQGPEPLPISTQEW
Turning to B1, the binding entry in the experiment with Halo-ARID4A is “no binding”; in the experiment with Halo-SIN3A_Δ7_968-1186 it was “no binding”; in the experiment with Halo-HDAC1 it was “binds”; in the experiment with Halo-BRMS1, “binds”; in the experiment with Halo-ING1, “no binding”; with Halo-SAP30 it was “binds”.
